This assay deals with L-plastin EF construct (EF-hand headpiece domain, H5 region omitted) (human). The assay is described as follows: NMR titration; H5 peptide added to 15N-labelled EF; 1H,15N HSQC; both purified.

Results are given in words; binding and its absence hold for the method and conditions named. Binding calls can cover weak binding; strength is not graded here.

B1: synthetic H5 peptide representing the H5 region of LPL (residues 83-100) (peptide)
peptide: STDVAKTFRKAINKKEGI
modifications: N-terminal acetyl (Ac-); C-terminal amide (-NH2)
For the molecule B1, the binding result is reported as “binds weakly”.

Values taken from publication PMC5286426, “The Calcium-Dependent Switch Helix of L-Plastin Regulates Actin Bundling” (Scientific Reports, 2017).
